Source: publication PMC11408249 (npj Imaging, 2024)

Assay: peptide synthesis
Details: conjugation step, 220 nm

Ac-C-DARKSEVQK-COOH
final HPLC purity: 90%

Ac-C-EWFMKDRLLNRPT
final HPLC purity: 90%

Ac-C-RDKKVAEQS
final HPLC purity: 92%

Ac-C-TEFPLRMRDWLNK-COOH
final HPLC purity: 97%
